The supplement of paper PMC10735217
Where a name gives a salt, the structure may show the parent alone. Some of the results follow. This data set is noisy: repeats of one test often differ as much as different tests do.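 Human kidney-derived cells stably carry a construct in which eight TEAD-binding elements drive luciferase, measured by luminescence in a drug-repurposing library screen. A hit is any compound whose signal exceeds the plate mean by more than five robust Z scores.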

System: HEK293A TEAD-LUC reporter
Experiment: TEAD-luciferase reporter activity (YAP activation), robust Z score vs plate; higher = stronger YAP/TEAD activation
Details: 24 h

| Compound | TEAD-luciferase reporter activity (compound concentration: 200 nM) | TEAD-luciferase reporter activity (compound concentration: 2 uM) | TEAD-luciferase reporter activity (compound concentration: 10 uM) |
| --- | --- | --- | --- |
| CC(CN(C)C)C(C)(O)Cc1ccc(Cl)cc1 (stereo not given) | inactive: -0.771 | inactive: -0.742 | inactive: 3.07 |
| COc1ccc(Cc2c(O[C@@H]3O[C@H](CO)[C@@H](F)[C@H](O)[C@H]3O)n[nH]c2C(F)(F)F)cc1 | inactive: -2.12 | inactive: 0.738 | inactive: -0.533 |
| Cc1ccnc2c1CCCC2C(N)=S (stereo not given) [isotiquimide] | inactive: 1.58 | inactive: -0.373 | inactive: -1.17 |
| CS(=O)(=O)c1cc(C(=O)N=C(N)N)ccc1N1CCN(C(=O)c2ccco2)CC1 | inactive: -1.04 | inactive: -1.27 | inactive: -0.571 |
| Cc1ccc2oc(NC(CC3CCCCC3)c3ccccn3)nc2c1 (stereo not given) [ontazolast] | inactive: 1.47 | inactive: -0.189 | inactive: 0.0874 |
| CCC1(C)CC(=O)NC1=O (stereo not given) | inactive: -0.0572 | – | inactive: 1.59 |
| CCC1(C)CC(=O)NC1=O (stereo not given) [Ethosuximide] | – | inactive: -1.71 | – |
| CCCCC(=O)Oc1ccc2c(c1)CC[C@@H]1[C@@H]2CC[C@]2(C)[C@@H](O)CC[C@@H]12 | inactive: -0.59 | inactive: 0.625 | inactive: -1.02 |
| O=C(c1ccc(F)cc1)N1CCC(N2CCCNC2=O)CC1 | inactive: 2.23 | – | inactive: 1.84 |
| CC(C)(Oc1ccc(Cl)cc1)C(=O)OCc1cccnc1 | inactive: -1.92 | inactive: -0.788 | inactive: -1.49 |
| CC1(C)C(=O)N(C(=O)NCC2CCN(CC3(O)CCOCC3)CC2)c2cc(F)ccc21 | inactive: -1.14 | active: 6.59 | inactive: -0.0833 |
| CCCC(=O)OC[C@H]1O[C@H](O[C@H]2O[C@H](COC(=O)CCC)[C@@H](O)[C@H](O)[C@H]2O)[C@H](O)[C@@H](O)[C@@H]1O | inactive: -0.961 | inactive: -1.64 | inactive: -1.26 |
| CCOC/C=C/c1ccc(-c2nc(-c3ccc(NC(C)C)cc3)c(-c3ccc(NC(C)C)cc3)[nH]2)cc1 | inactive: -1.55 | inactive: 0.0943 | inactive: -1.32 |
| O=C(Nc1ccc(Oc2ncccn2)cc1C(=O)O)c1ccc(Cl)cc1Cl | inactive: -0.296 | inactive: -0.434 | inactive: -0.556 |
| COC(=O)Nc1nc2ccc(C(=O)c3ccc4nc(NC(=O)OC)[nH]c4c3)cc2[nH]1 | inactive: -0.844 | inactive: 0.0374 | inactive: -0.115 |
| COc1cccc(-c2ccc(CN3CCCC(NC(=O)c4ccccc4)C3)cc2)c1 (stereo not given) | inactive: 1.15 | – | inactive: 0.0421 |
| C[C@@H](NC(=O)/C=C/c1ccc(C(F)(F)F)cc1)c1cc(F)c(NS(C)(=O)=O)c(F)c1 | inactive: -0.876 | inactive: -0.729 | inactive: 2.08 |
| OC[C@H]1O[C@@H](n2cnc3c(N[C@@H]4CCOC4)ncnc32)[C@H](O)[C@@H]1O [Tecadenoson] | inactive: 0.498 | – | inactive: -0.198 |
| O=c1[nH]c(=O)n(COCCO)cc1Cc1ccccc1 | inactive: -0.756 | inactive: -0.317 | inactive: -0.56 |
| O=C1CCC(C(=O)N2CSCC2C(=O)O)N1 (stereo not given) [pidotimod] | inactive: -0.673 | inactive: -0.486 | inactive: 0.219 |

| Compound | TEAD-luciferase reporter activity (compound concentration: 200 nM) | TEAD-luciferase reporter activity (compound concentration: 2 uM) | TEAD-luciferase reporter activity (compound concentration: 10 uM) |
| --- | --- | --- | --- |
| CC(C)(C(O)(Cn1cncn1)c1ccc(C(F)(F)F)cc1)S(C)(=O)=O (stereo not given) | inactive: 0.0686 | inactive: -1.02 | inactive: -0.803 |
| CCCCc1ccc(Nc2ncccc2C(=O)O)cc1 | inactive: 0.801 | inactive: -0.859 | inactive: 0.778 |
| c1csc(-c2ccc3c(c2)OCO3)n1 | inactive: -0.191 | inactive: -1.58 | inactive: 0.804 |
| O=C(O)C1CSC(c2ccccc2O)=N1 (stereo not given) | inactive: -2.31 | inactive: 0.528 | inactive: -1.4 |
| C[N+](C)(C)CCCCOC(=O)C12CC3CC(CC(C3)C1)C2 | inactive: 4.58 | inactive: -0.121 | inactive: -0.157 |
| CC1CCCCC1NC(=O)c1ccc2nccn2c1 (stereo not given) | active: 5.53 | – | inactive: 1.09 |
| CC1(C)CC(=O)c2c(C(F)(F)F)nn(-c3ccc(C(N)=O)c(N[C@H]4CC[C@H](O)CC4)c3)c2C1 | inactive: 1.27 | inactive: -2 | inactive: -3.74 |
| Cc1cc(C)nc(O[C@H](C(=O)O)C(C)(c2ccccc2)c2ccccc2)n1 | inactive: -0.656 | inactive: -1.25 | inactive: 1.33 |
| NCCCCN | inactive: -0.62 | inactive: 1.48 | inactive: -0.515 |
| Fc1ccc(-n2cc(CCCCN3CCC4(CC3)OCc3ccccc34)c3ccccc32)cc1 [Siramesine] | inactive: 0.437 | inactive: 0.184 | active: 12.3 |
| O=C1CCC(c2ccc(Nc3ccncc3)cc2)=NN1 | inactive: -0.0463 | inactive: -0.909 | inactive: -0.00111 |
| O=C1C=Cc2cc(Br)ccc2C1=O [Bonaphthone] | inactive: 1.04 | inactive: -0.189 | inactive: -0.0432 |
| O=C1N=C2SCCN2C(=O)C1Cc1ccc(Cl)cc1 (stereo not given) [nuclomedone] | inactive: -0.603 | inactive: -2.17 | inactive: 0.841 |
| OC(CCN1CCCCC1)(c1ccccc1)C1CCCC1 (stereo not given) | inactive: -1.7 | inactive: -1.01 | inactive: 1.07 |
| COc1nccnc1NS(=O)(=O)c1cccc(Cl)c1Cl | inactive: -2.32 | inactive: 0.025 | inactive: -1.45 |
| Cc1ncccc1C(=O)N1CCN(S(=O)(=O)c2ccc(C(F)(F)F)cc2)C[C@@H]1C | inactive: -0.257 | inactive: -0.3 | inactive: -0.148 |
| Cn1cc(S(C)=O)c(=O)c2ccc(F)cc21 (stereo not given) [flosequinan] | inactive: 2.81 | inactive: 2.43 | inactive: -0.751 |
| COc1ccc(CCC(C)NCC(O)c2ccc(O)c(S(C)=O)c2)cc1 (stereo not given) [Sulfinalol] | inactive: -0.981 | inactive: -1.5 | inactive: -0.14 |
| O=C(O)c1ccc(/C=C/S(=O)(=O)Cc2ccc(Cl)cc2)cc1 | – | inactive: 0.141 | – |
| O=C(O)c1ccc(/C=C/S(=O)(=O)Cc2ccc(Cl)cc2)cc1 [Recilisib] | inactive: 1.41 | – | inactive: -0.227 |

Some of the entries so far, with bars between the fields.
Compound | TEAD-luciferase reporter activity (compound concentration: 200 nM) | TEAD-luciferase reporter activity (compound concentration: 2 uM) | TEAD-luciferase reporter activity (compound concentration: 10 uM)
C[N+](C)(C)CCCCOC(=O)C12CC3CC(CC(C3)C1)C2 | inactive: 4.58 | inactive: -0.121 | inactive: -0.157
CC1CCCCC1NC(=O)c1ccc2nccn2c1 (stereo not given) | active: 5.53 | – | inactive: 1.09
CC1(C)CC(=O)c2c(C(F)(F)F)nn(-c3ccc(C(N)=O)c(N[C@H]4CC[C@H](O)CC4)c3)c2C1 | inactive: 1.27 | inactive: -2 | inactive: -3.74
Cc1cc(C)nc(O[C@H](C(=O)O)C(C)(c2ccccc2)c2ccccc2)n1 | inactive: -0.656 | inactive: -1.25 | inactive: 1.33
NCCCCN | inactive: -0.62 | inactive: 1.48 | inactive: -0.515
Fc1ccc(-n2cc(CCCCN3CCC4(CC3)OCc3ccccc34)c3ccccc32)cc1 [Siramesine] | inactive: 0.437 | inactive: 0.184 | active: 12.3
O=C1CCC(c2ccc(Nc3ccncc3)cc2)=NN1 | inactive: -0.0463 | inactive: -0.909 | inactive: -0.00111
O=C1C=Cc2cc(Br)ccc2C1=O [Bonaphthone] | inactive: 1.04 | inactive: -0.189 | inactive: -0.0432
O=C1N=C2SCCN2C(=O)C1Cc1ccc(Cl)cc1 (stereo not given) [nuclomedone] | inactive: -0.603 | inactive: -2.17 | inactive: 0.841
OC(CCN1CCCCC1)(c1ccccc1)C1CCCC1 (stereo not given) | inactive: -1.7 | inactive: -1.01 | inactive: 1.07
COc1nccnc1NS(=O)(=O)c1cccc(Cl)c1Cl | inactive: -2.32 | inactive: 0.025 | inactive: -1.45

Next part

| Compound | TEAD-luciferase reporter activity (compound concentration: 200 nM) | TEAD-luciferase reporter activity (compound concentration: 2 uM) | TEAD-luciferase reporter activity (compound concentration: 10 uM) |
| --- | --- | --- | --- |
| Oc1ccc2ccc(OCCCCN3CCN(c4cccc5sccc45)CC3)cc2n1 [brexpiprazole] | inactive: 3.76 | inactive: -0.415 | inactive: 0.865 |
| COc1ccc2cc(C(C)C3c4cc(OC)c(OC)cc4CCN3C(=O)CN3CCCCC3)ccc2c1 (stereo not given) | inactive: 1.65 | inactive: 0.237 | inactive: -0.869 |
| OCc1cc(Cl)c(OCc2ccc(Cl)cc2)c(Cl)c1 | inactive: -0.991 | inactive: 1.05 | inactive: 2.18 |
| CCCCCC[C@@H](CCC)C(=O)O [Arundic acid] | inactive: -0.85 | inactive: -1.39 | inactive: 1.19 |
| O=C[O-] | inactive: -0.484 | inactive: -0.18 | inactive: -0.273 |
| NC1CCN(c2c(F)cc3c(=O)c(C(=O)O)cn(C4CC4)c3c2Cl)C1 (stereo not given) [Clinafloxacin] | – | inactive: -0.735 | – |
| NC1CCN(c2c(F)cc3c(=O)c(C(=O)O)cn(C4CC4)c3c2Cl)C1 (stereo not given) [Clinafloxacin Hydrochloride] | inactive: 1.64 | – | inactive: 0.568 |
| CN(Cc1cccc(C(F)(F)F)c1)C(=O)C1CC1 | inactive: -1.43 | – | active: 9.42 |
| O=C(Nc1ccc(C(F)(F)F)cn1)N1CC=C(c2ncc([C@H](O)CO)cc2Cl)CC1 | inactive: -0.411 | inactive: 0.704 | inactive: 0.832 |
| CO[C@@]1(NC(=O)Cc2cccs2)C(=O)N2C(C(=O)O)=C(COC(N)=O)CS[C@@H]21 [cefoxitin sodium] | inactive: -0.98 | inactive: -0.408 | inactive: -1.41 |
| CC(C)(C)c1cc(C(O)CCC2CCNCC2)c2ccccc2n1 (stereo not given) | inactive: 0.855 | inactive: 0.0522 | inactive: 0.18 |
| Nc1ccncc1N [amifampridine phosphate] | inactive: 0.317 | inactive: -2.41 | active: 6.25 |
| COC(=O)[C@H]1[C@H]2C[C@@H]3c4[nH]c5ccccc5c4CCN3C[C@H]2C[C@@H](OC(=O)c2cc(OC)c(OC)c(OC)c2)[C@@H]1OC | – | inactive: -1.35 | – |
| COC(=O)[C@H]1[C@H]2C[C@@H]3c4[nH]c5ccccc5c4CCN3C[C@H]2C[C@@H](OC(=O)c2cc(OC)c(OC)c(OC)c2)[C@@H]1OC [Deserpidine] | inactive: -0.213 | – | inactive: -0.0751 |
| CCCCOC(=O)[C@@H](CCC(N)=O)NC(=O)[C@H](C)NC(=O)[C@@H](C)O[C@H]1[C@H](O)[C@@H](CO)OC(O)[C@@H]1NC(C)=O (stereo not given in full) [Murabutide] | inactive: -1.54 | inactive: 0.582 | inactive: 0.0509 |
| O=C(O)C=C1NN(Cc2nc3cc(C(F)(F)F)ccc3s2)C(=O)c2ccccc21 [Zopolrestat] | inactive: 1.5 | inactive: -0.273 | inactive: 2.8 |
| Cn1ncc(C(=O)NCC(C)(C)O)c1C(=O)Nc1ccn2cc(-c3ccccc3)nc2n1 | inactive: -1.97 | inactive: -1.18 | inactive: 0.574 |
| CS(=O)(=O)n1cc2c(n1)CN([C@H]1CO[C@H](c3cc(F)ccc3F)[C@@H](N)C1)C2 [omarigliptin] | inactive: -2.16 | inactive: -0.711 | inactive: 2.09 |
| CCC1(c2c[nH]cn2)Cc2ccccc2C1 [Atipamezole] | inactive: -0.515 | inactive: -0.879 | inactive: 2.01 |
